The source of these data is patent publication US20090143279A1 (priority 2007, published 2009).

This experiment relates to mtOXPHOS transcripts. It counts as cell-based, mouse.

Take `CCOC(=O)N1CCC(=C2c3ccc(Cl)cc3CCc3cccnc32)CC1` [loratadine]: the mitoOX is given as −0.499.
